PubChem BioAssay AID1259308, NCATS, 2017
Shown is an unselected part of about 59,000 reagents. About 1,510 of them (2.6%) were called active. 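Calls use total luciferase alone and ignore viability, so some active siRNAs may act by altering cell number.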 Reagents against one gene are numbered here. Not all columns of the deposit are shown.

Aim: 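Genes whose loss raises luciferase production in HEK293 cells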 (primary screen)
Cell system: human HEK293 embryonic kidney cells stably expressing firefly luciferase (HEK-CMV-Luc2-Hygro)
Reagents: single siRNA against human genes, 0.8 pmol siRNA per well
Duration: 72 h
Measurement: 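Reporter luminescence and viable-cell signal on separate replicate plates, given as percent of non-targeting control and median/MAD z-scores, plus per-cell luciferase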
Reading the numbers: total luciferase, z-score: higher = more reporter protein produced
Hit rule: 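An siRNA counts as active if its total luciferase robust z-score exceeds 3; genes with two or more such siRNAs out of three were retested with fresh siRNAs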
Meaning of the calls: active = raised luciferase; inactive = no rise

gene,siRNA no.,"total luciferase, z-score",activity call
BCLAF1P1 (BCL2 associated transcription factor 1 pseudogene 1),1,0.192,inactive
BCLAF1P1 (BCL2 associated transcription factor 1 pseudogene 1),2,0.435,inactive
BCLAF1P1 (BCL2 associated transcription factor 1 pseudogene 1),3,2.36,inactive
RAB11FIP1 (RAB11 family interacting protein 1),1,0.325,inactive
RAB11FIP1 (RAB11 family interacting protein 1),2,-0.0351,inactive
RAB11FIP1 (RAB11 family interacting protein 1),3,-0.00331,inactive
DDB2 (damage specific DNA binding protein 2),1,2.32,inactive
DDB2 (damage specific DNA binding protein 2),2,-0.034,inactive
DDB2 (damage specific DNA binding protein 2),3,-0.695,inactive
GON4L (gon-4 like),1,1.78,inactive
GON4L (gon-4 like),2,0.0203,inactive
GON4L (gon-4 like),3,3.17,active
ZNF580 (zinc finger protein 580),1,1.51,inactive
ZNF580 (zinc finger protein 580),2,-0.917,inactive
ZNF580 (zinc finger protein 580),3,0.536,inactive
SLC22A3,1,-0.168,inactive
SLC22A3,2,1.05,inactive
SLC22A3,3,-0.278,inactive
LYSMD1 (LysM domain containing 1),1,-0.557,inactive
LYSMD1 (LysM domain containing 1),2,0.237,inactive
LYSMD1 (LysM domain containing 1),3,-0.424,inactive
PPFIA2 (PPFI scaffold protein A2),1,-0.135,inactive
PPFIA2 (PPFI scaffold protein A2),2,0.0875,inactive
PPFIA2 (PPFI scaffold protein A2),3,-0.951,inactive
ATP4A (ATPase H+/K+ transporting subunit alpha),1,-1.38,inactive
ATP4A (ATPase H+/K+ transporting subunit alpha),2,0.374,inactive
ATP4A (ATPase H+/K+ transporting subunit alpha),3,-0.78,inactive
MARCHF4 (membrane associated ring-CH-type finger 4),1,0.164,inactive
MARCHF4 (membrane associated ring-CH-type finger 4),2,-1.01,inactive
MARCHF4 (membrane associated ring-CH-type finger 4),3,0.648,inactive
ZSWIM4 (zinc finger SWIM-type containing 4),1,1.16,inactive
ZSWIM4 (zinc finger SWIM-type containing 4),2,0.444,inactive
ZSWIM4 (zinc finger SWIM-type containing 4),3,0.862,inactive
LINC01548 (long independently transcribed non-coding RNA 1548),1,0.791,inactive
LINC01548 (long independently transcribed non-coding RNA 1548),2,0.0623,inactive
LINC01548 (long independently transcribed non-coding RNA 1548),3,-0.911,inactive
SLC26A1,1,-0.31,inactive
SLC26A1,2,0.124,inactive
SLC26A1,3,0.0985,inactive
FAM221A (family with sequence similarity 221 member A),1,0.712,inactive
FAM221A (family with sequence similarity 221 member A),2,-0.426,inactive
FAM221A (family with sequence similarity 221 member A),3,-0.261,inactive
DUSP3 (dual specificity phosphatase 3),1,0.139,inactive
DUSP3 (dual specificity phosphatase 3),2,0.104,inactive
DUSP3 (dual specificity phosphatase 3),3,-0.613,inactive
KIF5B (kinesin family member 5B),1,0.087,inactive
KIF5B (kinesin family member 5B),2,0.116,inactive
KIF5B (kinesin family member 5B),3,-0.344,inactive
ITGB1 (integrin subunit beta 1),1,-0.306,inactive
ITGB1 (integrin subunit beta 1),2,0.225,inactive
ITGB1 (integrin subunit beta 1),3,-0.316,inactive
KLK4 (kallikrein related peptidase 4),1,0.315,inactive
KLK4 (kallikrein related peptidase 4),2,1.23,inactive
KLK4 (kallikrein related peptidase 4),3,-0.256,inactive
LINC00921 (long independently transcribed non-coding RNA 921),1,1.64,inactive
LINC00921 (long independently transcribed non-coding RNA 921),2,-1.59,inactive
LINC00921 (long independently transcribed non-coding RNA 921),3,-0.426,inactive

Entries listed so far with an active call:
gene,siRNA no.,"total luciferase, z-score",activity call
GON4L (gon-4 like),3,3.17,active
